# Source: PubChem BioAssay AID493014 (National Center for Advancing Translational Sciences (NCATS), 2011)
# Hit rate of the full screen: of about 340,000 compounds, about 170 (0.05%) were called active. The shares of active, inactive and inconclusive entries below differ from those in the screen. Calls follow the shape of the dose curve; as a rule, active = well fitted inhibition curve with a large enough effect in the signal ratio, with a control signal flat (not every such curve was filed as active); inconclusive = small, poorly fitted or top-dose-only effect, or effect the other way, or a change in a side signal; inactive = flat fitted curve, though single readings scatter; the % refers to the signal ratio. Potencies beside an inconclusive call are fits to weak or partial responses and may not hold up.
# Experiment: qHTS Assay to Find Inhibitors of Chronic Active B-Cell Receptor Signaling;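 as to activity change, negative = inhibition: plate controls were basal doxycycline-induced cells for no effect and cells given 10 µM MG132 for full effect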
# Conditions: ABC-DLBCL IkBa-CBG/CBR reporter, luminescence ratio (green luciferase fused to IkBa over red control in TMD8 lymphoma cells), 4 h; activity change, negative = inhibition: at 46.1 µM (top of the series)
# Outline: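 Cell line TMD8 (human ABC DLBCL), stably expressing tet-inducible CBG68-IkBa fusion and CBR; IMDM/0.5% FBS; cpd up to 46 uM; dox induction, 4 h, 37C/5% CO2; dual luminescence; green/red ratio; MG132 control.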
# Potency is read from the fitted curve at half-maximal effect.
Structure (SMILES),Potency,"activity change, negative = inhibition"
c1ccc(-c2csc3ncnc(-n4cnc5ccccc54)c23)cc1,"inconclusive: 35.5 µM [falling, single point]",–
C/C(=N\NC(=O)c1ccc(N/N=C(\C)c2ccncc2)cc1)c1ccncc1,"inconclusive: 25.1 µM [falling, single point]",–
CC(C)(C)C(=O)Nc1nc2c(c(=O)[nH]1)CCCC2,–,inconclusive: -28.1%
Cc1cc(NS(=O)(=O)c2ccc(NC(=O)COc3c(C)cc(Br)cc3C)cc2)no1,–,inconclusive: -9.37%
CCN(CC)CCn1c2ccccc2c2nc3ccccc3nc21,"inconclusive: 0.447 µM [rising, full curve]",–
COc1ccc(-c2noc(CN3C(=O)c4ccccc4C3=O)n2)cc1,"inconclusive: 20.6 µM [falling, partial curve, poor fit]",–
O=[N+]([O-])c1cccc(-c2cn3ccccc3n2)c1,–,inconclusive: 15.4%
COc1cc2c(cc1OC)CN(C(=O)CN1C(=O)c3ccc([N+](=O)[O-])cc3C1=O)CC2,–,inconclusive: 13.3%
Cc1ccc(C(=O)N2CCc3ccccc32)o1,–,inactive: 0.946%
CC(C)(C)c1ccc(-c2noc(CCC(=O)NCc3ccco3)n2)cc1,"inconclusive: 20 µM [falling, single point]",–
COc1ccc(-c2csc(NC(=O)COC(=O)Cc3ccc(Cl)cc3Cl)n2)cc1,"inconclusive: 0.517 µM [rising, full curve, poor fit]",–
CCC(C)[C@@H](N)C(=O)N/N=C/c1ccc2ncccc2c1 (some centres undefined),–,inconclusive: 0.748%
O=[N+]([O-])c1ccc(O)c2ncccc12,"inconclusive: 0.731 µM [cytotoxic, full curve, poor fit]",–
CC(C)NC(=O)c1onc(CSc2ccc(F)c(F)c2)c1C(=O)O,"inconclusive: 31.6 µM [falling, single point]",–
COc1ccc(OC)c(CCNC(=O)Cn2sc3nc(C)cc(C)c3c2=O)c1,"inconclusive: 29.1 µM [rising, single point]",–
Cc1nn2c(=O)c3c4c(sc3nc2n1-c1ccccc1)COC(C)(C)C4,–,inconclusive: -18.6%
COc1ccccc1NC(=O)c1cc(C(=O)O)ccc1C(=O)O,"inconclusive: 35.5 µM [falling, partial curve, poor fit]",–
COc1ccc(Nc2cc(NCCCO)c([N+](=O)[O-])c3nonc23)cc1,–,inconclusive: -0.98%
Cc1cc(C)nc(SCC(=O)Nc2ccc(N3CCOCC3)c(Cl)c2)n1,–,inconclusive: -2.62%
CCOc1ccc(OCCC(=O)NNC(=O)c2ccncc2)cc1,–,inconclusive: 3.49%
CC(C)c1ccc(S(=O)(=O)N2CCN(CCC(=O)Nc3ccc(N(C)C)cc3)CC2)cc1,–,inconclusive: 3.23%
COc1cc(C2SC(C)C(=O)N2CCc2ccccc2)cc(OC)c1OC (centres undefined),"inconclusive: 22.4 µM [falling, single point]",–
COc1cc2nc(CN(C)Cc3ccc(C(C)(C)C)cc3)[nH]c(=O)c2cc1OC,–,inconclusive: 0.712%
Cc1ccc(-n2cccc2/C=N/n2cnnc2)cc1Cl,–,inconclusive: 21.6%
CC(=O)c1ccc(N2CCN(S(=O)(=O)c3c(C)[nH]c(C)c3C(=O)N3CCCC3)CC2)cc1,–,inconclusive: 7.25%

Structure (SMILES),Potency,"activity change, negative = inhibition"
CCc1ccc(OCC(=O)NCCOc2ccccc2)cc1,"inconclusive: 16.4 µM [rising, partial curve, poor fit]",–
CN1CCN(c2ccc(S(=O)(=O)N3CCCCC3)cc2NC(=O)CCc2ccccc2)CC1,–,inactive: 5.42%
N#C/C(=C\c1cccs1)C(=O)Nc1nccs1,–,inconclusive: -0.511%
O=C(NCCc1nnc2ccc(NCc3ccccc3Cl)nn12)c1ccccc1,"inconclusive: 3.16 µM [falling, partial curve]",–
Cc1ccccc1NC(=O)Cn1nc(C)n2cccc2c1=O,–,inconclusive: 3.56%
COc1ccccc1OCc1ccc(C(=O)Nc2ccc(C)c(C)c2)o1,–,inactive: 8.62%
CC1(C)Cc2nc3sc4c(=O)[nH]cnc4c3cc2CS1,–,inconclusive: 6.88%
COc1ccc(Cl)cc1NC(=S)NCCSc1ccc(C)cc1,–,inconclusive: 24.7%
CC(C)OP(=O)(OC(C)C)/C(C=O)=N\Nc1ccc([N+](=O)[O-])cc1,–,inconclusive: 20.3%
CCO[C@H]1OC(C(=O)NCc2ccccc2)=C[C@@H](C2CC2)[C@@H]1CCCO,–,inactive: 17.1%
Clc1ccc(-c2c[n+](Cc3ccc(Cl)c(Cl)c3)c3n2CCC3)cc1,"inconclusive: 16.4 µM [falling, partial curve]",–
CC(C)(C)OC(=O)N1Cc2ccccc2C[C@H]1C(=O)NCC(=O)NC1CCCCC1,"inconclusive: 10 µM [falling, partial curve, poor fit]",–
CC(=O)Nc1ccc2nc3ccccc3nc2c1,–,inconclusive: -25.9%
Cc1c(Cl)cccc1NC(=O)Nc1ccccc1C(N)=O,–,inactive: -2.33%
Cc1ccc(C(C)C)c(OCC(=O)Nc2ccc3c(c2)nc(CN2CCCC2)n3C)c1,–,inconclusive: -28.4%
Cc1ccc2cc(CCNC(=O)c3ccc(S(=O)(=O)N4CCOCC4)cc3)c(=O)[nH]c2c1,–,inactive: 6.69%
Cc1nnc2sc(-c3ccncc3)nn12,–,inactive: -0.68%
Cn1c(=O)c(=O)n(C)c2cc(N3CCCC3)c(NS(=O)(=O)c3ccc(Cl)cc3)cc21,–,inactive: -1.12%
COCCNC(=O)C(=O)Nc1c2c(nn1-c1ccccc1)CS(=O)(=O)C2,"inconclusive: 3.55 µM [falling, full curve]",–
CCn1cnc2c1c(=O)n(Cc1csc(-c3ccccc3)n1)c(=O)n2Cc1ccccc1,–,inconclusive: -18.4%
Cc1cccc(-c2nc(Nc3cccc(O)c3)c3ccccc3n2)c1,–,inconclusive: 4.27%
Cc1ccc2c(CN3C(=O)NC(C)(c4ccc5c(c4)OCO5)C3=O)cc(=O)oc2c1 (centres undefined),–,inconclusive: -5.4%
CN(c1ccccc1C(=O)Nc1ccc2c(c1)OCO2)S(C)(=O)=O,–,inconclusive: 19%
Cc1cccc(NC(=O)CN2CCN(C(=O)c3ccc(OCc4cn5ccccc5n4)cc3)CC2)c1C,–,inconclusive: 5.85%

# An excerpt from above in order of length of the SMILES, descending.
Structure (SMILES),Potency,"activity change, negative = inhibition"
Cc1ccc2c(CN3C(=O)NC(C)(c4ccc5c(c4)OCO5)C3=O)cc(=O)oc2c1 (centres undefined),–,inconclusive: -5.4%
CC1(C)Cc2nc3sc4c(=O)[nH]cnc4c3cc2CS1,–,inconclusive: 6.88%
Cc1ccccc1NC(=O)Cn1nc(C)n2cccc2c1=O,–,inconclusive: 3.56%
